The source of these data is article PMC4658663.

Amino acid sequences for entries named in this document (tags omitted). A change or cut given only in a name is not applied to a line headed by its entry.
UniProt P25100: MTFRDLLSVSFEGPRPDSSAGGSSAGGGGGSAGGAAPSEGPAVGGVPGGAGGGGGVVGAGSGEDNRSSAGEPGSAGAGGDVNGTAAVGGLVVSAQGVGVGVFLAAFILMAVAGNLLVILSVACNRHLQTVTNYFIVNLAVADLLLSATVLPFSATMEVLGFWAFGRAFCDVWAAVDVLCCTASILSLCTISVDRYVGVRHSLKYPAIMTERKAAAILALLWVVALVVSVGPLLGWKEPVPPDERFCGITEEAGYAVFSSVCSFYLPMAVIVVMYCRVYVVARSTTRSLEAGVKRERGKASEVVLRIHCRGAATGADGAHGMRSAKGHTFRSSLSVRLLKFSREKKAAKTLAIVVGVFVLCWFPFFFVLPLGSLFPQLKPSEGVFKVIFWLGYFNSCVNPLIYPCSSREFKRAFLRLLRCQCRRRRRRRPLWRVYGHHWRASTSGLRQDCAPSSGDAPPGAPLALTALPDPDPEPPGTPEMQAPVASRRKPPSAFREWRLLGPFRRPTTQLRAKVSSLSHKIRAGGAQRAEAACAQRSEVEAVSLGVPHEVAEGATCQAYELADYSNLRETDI
UniProt P32302: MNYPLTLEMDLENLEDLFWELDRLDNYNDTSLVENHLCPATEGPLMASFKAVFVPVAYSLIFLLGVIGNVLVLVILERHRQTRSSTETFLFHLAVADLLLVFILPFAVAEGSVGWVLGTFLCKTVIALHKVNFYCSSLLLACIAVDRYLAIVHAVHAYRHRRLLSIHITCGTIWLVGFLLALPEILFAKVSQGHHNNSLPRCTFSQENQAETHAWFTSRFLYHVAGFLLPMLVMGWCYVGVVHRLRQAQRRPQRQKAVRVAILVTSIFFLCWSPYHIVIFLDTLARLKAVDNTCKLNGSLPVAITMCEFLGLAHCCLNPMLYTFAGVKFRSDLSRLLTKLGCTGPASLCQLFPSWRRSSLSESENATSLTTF
UniProt P32745: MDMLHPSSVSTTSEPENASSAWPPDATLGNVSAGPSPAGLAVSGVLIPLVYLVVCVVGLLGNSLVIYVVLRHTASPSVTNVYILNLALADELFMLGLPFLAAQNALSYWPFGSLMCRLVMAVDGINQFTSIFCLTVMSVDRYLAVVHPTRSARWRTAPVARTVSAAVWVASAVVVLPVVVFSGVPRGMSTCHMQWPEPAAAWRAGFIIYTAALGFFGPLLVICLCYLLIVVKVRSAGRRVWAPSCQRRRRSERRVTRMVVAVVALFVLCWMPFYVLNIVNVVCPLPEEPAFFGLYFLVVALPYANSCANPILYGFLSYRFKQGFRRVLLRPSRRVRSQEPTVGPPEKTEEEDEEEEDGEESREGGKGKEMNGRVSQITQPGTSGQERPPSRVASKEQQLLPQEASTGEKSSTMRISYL
UniProt P18089: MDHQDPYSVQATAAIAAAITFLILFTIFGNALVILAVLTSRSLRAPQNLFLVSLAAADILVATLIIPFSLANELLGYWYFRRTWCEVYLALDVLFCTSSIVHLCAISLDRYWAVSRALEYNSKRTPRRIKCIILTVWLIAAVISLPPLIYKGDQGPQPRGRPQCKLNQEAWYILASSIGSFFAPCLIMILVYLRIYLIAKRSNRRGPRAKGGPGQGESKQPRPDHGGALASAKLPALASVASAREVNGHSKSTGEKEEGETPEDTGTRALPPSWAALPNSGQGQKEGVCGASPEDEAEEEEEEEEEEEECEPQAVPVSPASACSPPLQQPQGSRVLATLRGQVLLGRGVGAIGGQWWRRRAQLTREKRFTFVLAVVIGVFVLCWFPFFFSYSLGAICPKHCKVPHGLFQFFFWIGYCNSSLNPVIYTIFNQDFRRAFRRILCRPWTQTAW
UniProt P25024: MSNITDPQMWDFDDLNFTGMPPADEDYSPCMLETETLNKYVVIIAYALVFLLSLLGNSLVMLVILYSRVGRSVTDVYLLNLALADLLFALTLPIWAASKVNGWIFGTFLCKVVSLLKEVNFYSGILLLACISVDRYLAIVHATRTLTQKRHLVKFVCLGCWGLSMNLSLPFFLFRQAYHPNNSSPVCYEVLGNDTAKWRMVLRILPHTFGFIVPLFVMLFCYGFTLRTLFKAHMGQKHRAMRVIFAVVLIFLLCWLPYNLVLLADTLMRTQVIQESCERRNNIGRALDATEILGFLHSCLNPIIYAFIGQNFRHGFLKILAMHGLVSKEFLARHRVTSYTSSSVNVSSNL
UniProt Q9NS75: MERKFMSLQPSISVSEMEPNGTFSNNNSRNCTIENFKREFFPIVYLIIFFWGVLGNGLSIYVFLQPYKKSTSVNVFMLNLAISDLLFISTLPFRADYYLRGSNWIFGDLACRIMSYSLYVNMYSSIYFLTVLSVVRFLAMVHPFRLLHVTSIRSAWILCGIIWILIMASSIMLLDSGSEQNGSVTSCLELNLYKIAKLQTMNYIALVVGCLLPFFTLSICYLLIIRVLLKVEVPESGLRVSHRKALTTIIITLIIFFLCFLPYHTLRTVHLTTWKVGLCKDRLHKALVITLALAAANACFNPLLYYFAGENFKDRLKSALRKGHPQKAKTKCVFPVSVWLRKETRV
UniProt P28223: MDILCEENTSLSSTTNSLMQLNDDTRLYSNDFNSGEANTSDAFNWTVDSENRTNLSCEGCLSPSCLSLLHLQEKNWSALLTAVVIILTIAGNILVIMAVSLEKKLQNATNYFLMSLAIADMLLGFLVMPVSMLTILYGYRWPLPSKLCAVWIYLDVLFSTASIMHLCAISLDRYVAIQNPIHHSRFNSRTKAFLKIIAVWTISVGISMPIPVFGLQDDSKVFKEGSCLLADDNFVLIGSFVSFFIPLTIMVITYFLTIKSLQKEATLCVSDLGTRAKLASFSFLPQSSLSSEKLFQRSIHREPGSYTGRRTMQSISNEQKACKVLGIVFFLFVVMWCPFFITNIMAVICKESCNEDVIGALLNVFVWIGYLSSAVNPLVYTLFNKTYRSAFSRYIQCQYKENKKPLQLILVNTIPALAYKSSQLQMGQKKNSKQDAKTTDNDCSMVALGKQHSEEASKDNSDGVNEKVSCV
UniProt O95136: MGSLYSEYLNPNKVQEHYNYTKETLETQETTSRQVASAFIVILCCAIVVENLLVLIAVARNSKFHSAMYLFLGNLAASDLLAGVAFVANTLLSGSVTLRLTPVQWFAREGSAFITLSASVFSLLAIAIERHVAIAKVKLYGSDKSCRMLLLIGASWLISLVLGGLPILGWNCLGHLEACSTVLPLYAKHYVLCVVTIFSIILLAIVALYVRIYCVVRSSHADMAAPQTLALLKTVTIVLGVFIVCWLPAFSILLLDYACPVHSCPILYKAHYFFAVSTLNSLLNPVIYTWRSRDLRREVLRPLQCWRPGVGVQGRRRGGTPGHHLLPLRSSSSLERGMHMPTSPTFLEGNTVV
UniProt Q14160: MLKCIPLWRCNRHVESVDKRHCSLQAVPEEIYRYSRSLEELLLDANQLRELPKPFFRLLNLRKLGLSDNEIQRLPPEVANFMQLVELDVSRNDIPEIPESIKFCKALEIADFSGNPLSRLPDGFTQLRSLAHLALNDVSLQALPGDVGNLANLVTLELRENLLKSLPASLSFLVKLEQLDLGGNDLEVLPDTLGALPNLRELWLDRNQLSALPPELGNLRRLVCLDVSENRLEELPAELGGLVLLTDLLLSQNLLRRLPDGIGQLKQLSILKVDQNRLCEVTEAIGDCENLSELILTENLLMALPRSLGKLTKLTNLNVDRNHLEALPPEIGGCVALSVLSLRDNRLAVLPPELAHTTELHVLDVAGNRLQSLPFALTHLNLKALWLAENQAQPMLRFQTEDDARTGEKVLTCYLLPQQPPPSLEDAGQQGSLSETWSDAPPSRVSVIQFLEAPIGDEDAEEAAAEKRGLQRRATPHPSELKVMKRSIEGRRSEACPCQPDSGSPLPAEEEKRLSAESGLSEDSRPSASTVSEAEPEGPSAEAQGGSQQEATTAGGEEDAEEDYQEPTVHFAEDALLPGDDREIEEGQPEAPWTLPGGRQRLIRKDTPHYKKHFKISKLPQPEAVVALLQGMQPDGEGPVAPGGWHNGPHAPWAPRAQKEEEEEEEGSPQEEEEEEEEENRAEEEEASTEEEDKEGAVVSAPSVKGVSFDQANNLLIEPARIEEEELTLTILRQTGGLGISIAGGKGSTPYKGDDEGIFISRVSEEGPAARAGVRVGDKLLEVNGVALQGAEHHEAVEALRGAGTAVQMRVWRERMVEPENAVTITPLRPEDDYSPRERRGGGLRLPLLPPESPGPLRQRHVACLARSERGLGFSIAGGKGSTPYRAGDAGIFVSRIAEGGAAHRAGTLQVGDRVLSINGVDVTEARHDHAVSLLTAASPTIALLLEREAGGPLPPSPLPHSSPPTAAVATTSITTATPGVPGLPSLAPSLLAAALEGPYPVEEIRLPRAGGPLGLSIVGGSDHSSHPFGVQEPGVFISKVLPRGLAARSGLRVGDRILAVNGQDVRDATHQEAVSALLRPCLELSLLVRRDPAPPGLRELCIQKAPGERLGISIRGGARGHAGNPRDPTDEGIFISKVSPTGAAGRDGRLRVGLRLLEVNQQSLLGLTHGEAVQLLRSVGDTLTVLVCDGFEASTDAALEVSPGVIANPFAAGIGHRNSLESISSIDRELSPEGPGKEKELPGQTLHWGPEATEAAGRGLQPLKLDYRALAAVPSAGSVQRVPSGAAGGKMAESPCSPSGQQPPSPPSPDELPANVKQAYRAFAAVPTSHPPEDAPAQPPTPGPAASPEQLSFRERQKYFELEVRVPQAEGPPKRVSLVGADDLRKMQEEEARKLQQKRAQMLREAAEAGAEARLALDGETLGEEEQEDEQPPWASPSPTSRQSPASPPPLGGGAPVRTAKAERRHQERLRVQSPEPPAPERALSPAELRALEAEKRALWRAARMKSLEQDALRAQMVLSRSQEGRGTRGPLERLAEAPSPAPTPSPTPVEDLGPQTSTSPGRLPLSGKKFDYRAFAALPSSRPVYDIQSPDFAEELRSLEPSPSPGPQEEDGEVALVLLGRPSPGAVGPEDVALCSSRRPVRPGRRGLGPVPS

Assay [1] addresses TAP–ADRA1D (human) (UniProt P25100). In words: affinity purification with mass spectrometry; TAP/MS; TAP–ADRA1D transfected in HeLa cells.
Assay [2] has the same target. In words: affinity purification with mass spectrometry; TAP/MS; TAP–ADRA1D transfected in MCF-7 cells.
Assay [3] shares this target. In words: affinity purification with mass spectrometry; TAP/MS; TAP–ADRA1D transfected in A375 cells.
Assay [4] deals with CXCR5 (chemokine receptor), TAP-tagged (human) (UniProt P32302). The experiment in a line: affinity purification with mass spectrometry; TAP/MS; TAP-tagged bait transfected alone (or with empty vector) in HEK293T cells; TEV cleavage omitted; eluates on Velos-Pro Orbitrap Elite; protein FDR 2.5%.
The target in assay [5] is SSTR3 (somatostatin receptor 3), TAP-tagged (human) (UniProt P32745). The description is as above.
Assay [6] addresses ADRA2B (α2B-adrenergic receptor), TAP-tagged (human) (UniProt P18089). The assay is described as above.
The target of assay [7] is CXCR1 (chemokine receptor), TAP-tagged (human) (UniProt P25024). The description is as above.
For assay [8], the target named is CYSLTR2 (cysteinyl leukotriene 2 receptor), TAP-tagged (human) (UniProt Q9NS75). The description is as above.
For assay [9], the target named is HTR2A (5-hydroxytryptamine type 2A receptor), TAP-tagged (human) (UniProt P28223). Described as above.
Assay [10] has as its target S1PR2 (sphingosine-1-phosphate type 2 receptor), TAP-tagged (human) (UniProt O95136). The description is as above.
Assay [11] deals with TAP–ADRA1D-ΔPDZ (human) (UniProt P25100). The experiment in a line: affinity purification with mass spectrometry; TAP/MS; TAP–ADRA1D-ΔPDZ co-transfected with Myc–ADRA1D in HEK293T cells.
For assay [12], the target named is TAP–ADRA1D (human) (UniProt P25100). The experiment in a line: affinity purification with mass spectrometry; TAP/MS; TAP–ADRA1D transfected in A549 cells.
Assay [13] has the same target. In words: affinity purification with mass spectrometry; TAP/MS; TAP–ADRA1D transfected in SW480 cells.

Results are given in words; binding and its absence hold for the method and conditions named. In cells and extracts the contact can be indirect. A yes stands for co-enrichment or nearness to the bait. Other partners may have been found. For some of these results: No binding means not detected with the bait.

Turning to “Scribble (SCRIB), endogenous (from UniProt Q14160 1-1655)”, the binding entry is on record as “binds” in [1]; “binds” in assay [2]; “binds” in assay [3]; “no binding” in assay [4]; “no binding” in assay [5]; “no binding” in assay [6]. The binding entry in assay [7] was “no binding”; in assay [8], “no binding”; in assay [9] it was “no binding”; in assay [10] it was “no binding”; in assay [11], “no binding”; in [12] it was “binds”. The binding result in [13] is reported as “binds”.
